Data reported in patent US20160250285A1, “NEUROPROTECTIVE PEPTIDES” (priority 2013, published 2016).
Not every detail of the peptide structures is certain; ends, links or a residue may be inferred. Some compounds share one wording; it may come from a single statement. Ends that are not written are not given here.

Columns and labels:
[1] = tested on: primary cortical neuronal cultures; conditions: for neuroprotection (neuronal viability): peptide 15 min prior to and during glutamic acid exposure, viability 24 h, MTS
Description: Briefly, cortical tissue from E18-E19 Sprague-Dawley rats was dissociated in Dulbecco's modified Eagle medium (DMEM; Invitrogen, Australia) supplemented with 1.3 mM L-cysteine, 0.9 mM NaHCOa, 10 units/ml papain (Sigma, USA) and 50 units/ml DNase (Sigma) and washed in cold DMEM/10% horse serum. Neurons were resuspended in Neurobasal (Invitrogen) containing 2% B27 supplement (B27; Invitrogen). Before seeding, 96-well sized glass wells (6 mm diameter, ProTech, Australia) or 96-well plastic plates (ProSciTech, Australia) were coated with poly-D-lysine overnight ([…]: 50 mg/mL; 70-150 K, Sigma). […] Neurons were plated to obtain ≈10,000 viable neurons for each well on day in vitro 11-12. […] On day in vitro 4 one third of the culture medium was removed and replaced with fresh Neurobasal/2% B27 containing the mitotic inhibitor, cytosine arabinofuraNOside (1 mM final concentration; Sigma). On day in vitro 8 one half of the culture medium was replaced with Neurobasal/2% B27.
To induce excitotoxicity, 50 μl of Neurobasal/2% B27 containing glutamic acid (200 μM) or kainic acid (400 μM) or NMDA (200 μM) was added to the culture wells (100 μM glutamic acid, 200 μM kainic acid and NMDA 100 μM final concentration). Cultures were incubated at 37° C. in the CO2 incubator for 5 minutes for glutamic acid, 45 minutes for kainic acid and 10 minutes for NMDA exposure, after which time the media was replaced with 100 μl of 50% Neurobasal/2% N2 supplement (Invitrogen) and 50% balanced salt solution (BSS; see below). Cultures were incubated for a further 24 hours at 37° C. in the CO2 incubator. The untreated controls with or without glutamic acid or kainic acid treatment received the same wash steps and media additions.
Following this step, cultures were treated as described above. Untreated controls with or without glutamic acid exposure received the same wash steps and media additions. In addition, a post-glutamic acid exposure CPP treatment (5 μM) experiment was performed for the R9 peptide and the JNKI-1D-TAT control peptide.
For pre-glutamic acid exposure experiments, neurons were exposed to peptide(s) for a 10 minute period, immediately before or 1, 2, 3, 4 or 5 hours prior to glutamic acid exposure. […] At the relevant peptide pre-treatment time, media was removed and replaced with 100 μl of Neurobasal/2%. […] Following 5-minute glutamic acid exposure, neuronal culture wells were treated as described above. For all experiments untreated controls with or without glutamic acid treatment underwent the same incubation steps and media additions.
Heparin (for injection) was obtained from Pfizer (1000 IU/ml). Two different heparin experiments were performed: 1. […]

[2] = tested on: primary cortical neuronal cultures; experiment: In vitro ischemia / oxygen-glucose deprivation (OGD) model, neurons; format: cell-based, rat; conditions: for neuroprotection when added for 15 minutes after OGD: FIGS. 31, 20, 22, 1 μM and 5 μM in FIG. 31

Row | Sequence | neuroprotection (neuronal viability) [1] | neuroprotection, exposure 1 or 2 hours prior to glutamic acid insult ([1]; 10 min exposure (FIG. 14)) | neuroprotection, 10 minute pre-exposure removed immediately prior to insult ([1]; FIG. 29, FIG. 14) | neuroprotection, peptide 1 hour before OGD ([2]; 10 min exposure (FIG. 18)) | neuroprotection when added for 15 minutes after OGD [2] | neuroprotection in the OGD model (overall statement) ([2]; discussion summary)
1 | PRRRRRSSSRPIRRRRRPRASRRRRRGGRRRR [Ptm1] | neuroprotective |  |  |  |  | 
2 | VSRRRRRRGGRRRR [LMWP] |  | only neuroprotective when exposure was immediately before | neuroprotective | not neuroprotective | neuroprotective | 
3 | PRRRRSSSRPVRRRRRPRVSRRRRRRGGRRRR [Ptm5] | neuroprotective |  |  |  | neuroprotective | neuroprotective
